In PMC11330527, “Structure and dimerization properties of the plant-specific copper chaperone CCH” (Scientific Reports, 2024) one finds binding data, which are given here for 1 molecule.

Results are given in words; binding and its absence hold for the method and conditions named.

For this experiment, the target named is CCHΔ, truncation mutant of CCH lacking the C-terminal extension (Arabidopsis thaliana) (UniProt O82089). Briefly: condition: only both copies preloaded with copper (unlabeled chaperone 1.5 to 6.25 µM); MST; both copies preloaded with copper; labeled chaperone 20 nM, unlabeled chaperone 1.5 to 6.25 µM; 300 mM NaCl, 50 mM HEPES, 0.05% Tween-20, pH 7.5; room temperature; both purified.

B1: CCHΔ, truncation mutant of CCH lacking the C-terminal extension (domain or fragment, UniProt O82089 1-70)
chain: MAQTVVLKVGMSCQGCVGAVNRVLGKMEGVESFDIDIKEQKVTVKGNVEPEAVFQTVSKTGKKTSYWPVE
modifications: Alexa Fluor 488 NHS ester on amines (only the labeled copy in MST)
B1: the binding entry is reported as “no binding”.
